Assay results from the supplement of paper PMC8728848.
The list shows a part of the results.

What was measured:
Assay in all cases: glycan array binding signal (z-score within array); higher = stronger binding
Conditions in all cases: glycan notation: IUPAC condensed, linker removed
[1] = target: Gal(b1-3)GlcNAc(b1-2)Man(a1-3)[Gal(b1-3)GlcNAc(b1-2)Man(a1-6)]Man(b1-4)GlcNAc(b1-4)GlcNAc
Outline: (§1)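 The binding signal is a Z-score computed within each array and averaged over linkers. Arrays of the same protein sequence at different concentrations or buffers were also averaged together. Data originate from 3228 arrays in the Consortium for Functional Glycomics database, kept only where the protein sequence was available.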

[2] = target: Gal(b1-3)GlcNAc(b1-2)Man(a1-3)[Gal(b1-3)GlcNAc(b1-2)Man(a1-6)]Man(b1-4)GlcNAc(b1-4)[Fuc(a1-6)]GlcNAc
Outline: as §1

[3] = target: Gal(b1-3)GlcNAc(b1-2)Man(a1-3)[GlcNAc(b1-4)][Gal(b1-3)GlcNAc(b1-2)Man(a1-6)]Man(b1-4)GlcNAc(b1-4)GlcNAc
Outline: as §1

[4] = target: Gal(b1-3)GlcNAc(b1-2)[Gal(b1-3)GlcNAc(b1-6)]Man(a1-6)[Gal(b1-3)GlcNAc(b1-2)Man(a1-3)]Man(b1-4)GlcNAc(b1-4)GlcNAc
Outline: as §1

[5] = target: Gal(b1-3)GlcNAc(b1-3)Gal(b1-3)GlcNAc
Outline: as §1

[6] = target: Gal(b1-3)GlcNAc(b1-3)Gal(b1-4)Glc
Outline: as §1

[7] = target: Gal(b1-3)GlcNAc(b1-3)Gal(b1-4)GlcNAc
Outline: as §1

[8] = target: Gal(b1-3)GlcNAc(b1-3)Gal(b1-4)GlcNAc(b1-2)Man(a1-3)[Gal(b1-3)GlcNAc(b1-3)Gal(b1-4)GlcNAc(b1-2)Man(a1-6)]Man(b1-4)GlcNAc(b1-4)GlcNAc
Outline: as §1

[9] = target: Gal(b1-3)GlcNAc(b1-3)Gal(b1-4)GlcNAc(b1-2)[Gal(b1-3)GlcNAc(b1-3)Gal(b1-4)GlcNAc(b1-6)]Man(a1-6)[Gal(b1-3)GlcNAc(b1-3)Gal(b1-4)GlcNAc(b1-2)Man(a1-3)]Man(b1-4)GlcNAc(b1-4)[Fuc(a1-6)]GlcNAc
Outline: as §1

[10] = target: Gal(b1-3)GlcNAc(b1-3)Gal(b1-4)GlcNAc(b1-3)Gal(b1-4)GlcNAc(b1-2)[Gal(b1-3)GlcNAc(b1-3)Gal(b1-4)GlcNAc(b1-3)Gal(b1-4)GlcNAc(b1-6)]Man(a1-6)[Gal(b1-3)GlcNAc(b1-3)Gal(b1-4)GlcNAc(b1-3)Gal(b1-4)GlcNAc(b1-2)Man(a1-3)]Man(b1-4)GlcNAc(b1-4)[Fuc(a1-6)]GlcNAc
Outline: as §1

[11] = target: Gal(b1-3)GlcNAc(b1-3)Gal(b1-4)GlcNAc(b1-6)[Gal(b1-3)GlcNAc(b1-3)]Gal(b1-4)Glc
Outline: as §1

[12] = target: Gal(b1-3)GlcNAc(b1-3)Gal(b1-4)[Fuc(a1-3)]GlcNAc
Outline: as §1

[13] = target: Gal(b1-3)GlcNAc(b1-3)Gal(b1-4)[Fuc(a1-3)]GlcNAc(b1-6)[Gal(b1-3)GlcNAc(b1-3)]Gal(b1-4)Glc
Outline: as §1

[14] = target: Gal(b1-3)GlcNAc(b1-3)GalNAc
Outline: as §1

[15] = target: Gal(b1-3)GlcNAc(b1-6)Gal(b1-4)GlcNAc
Outline: as §1

[16] = target: Gal(b1-3)GlcNAc(b1-6)GalNAc
Outline: as §1

[17] = target: Gal(b1-3)GlcNAc(b1-6)[Gal(b1-3)]GalNAc
Outline: as §1

[18] = target: Gal(b1-3)GlcNAc6S
Outline: as §1

[19] = target: Gal(b1-3)[Fuc(a1-4)]GlcNAc
Outline: as §1

[20] = target: Gal(b1-3)[Fuc(a1-4)]GlcNAc(b1-2)Man
Outline: as §1

[21] = target: Gal(b1-3)[Fuc(a1-4)]GlcNAc(b1-2)Man(a1-3)[Gal(b1-3)[Fuc(a1-4)]GlcNAc(b1-2)Man(a1-6)]Man(b1-4)GlcNAc(b1-4)[Fuc(a1-6)]GlcNAc
Outline: as §1

[22] = target: Gal(b1-3)[Fuc(a1-4)]GlcNAc(b1-3)Gal(b1-3)[Fuc(a1-4)]GlcNAc
Outline: as §1

[23] = target: Gal(b1-3)[Fuc(a1-4)]GlcNAc(b1-3)Gal(b1-4)[Fuc(a1-3)]GlcNAc
Outline: as §1

[24] = target: Gal(b1-3)[Fuc(a1-4)]GlcNAc(b1-6)GalNAc
Outline: as §1

[25] = target: Gal(b1-3)[GlcNAc(b1-6)]GalNAc
Outline: as §1

[26] = target: Gal(b1-3)[Neu5Ac(a2-6)]GalNAc
Outline: as §1

[27] = target: Gal(b1-3)[Neu5Ac(a2-6)]GlcNAc(b1-4)Gal(b1-4)Glc
Outline: as §1

[28] = target: Gal(b1-3)[Neu5Ac(b2-6)]GalNAc
Outline: as §1

[29] = target: Gal(b1-4)Gal
Outline: as §1

[30] = target: Gal(b1-4)GalNAc(a1-3)[Fuc(a1-2)]Gal(b1-4)GlcNAc
Outline: as §1

[31] = target: Gal(b1-4)GalNAc(b1-3)[Fuc(a1-2)]Gal(b1-4)GlcNAc
Outline: as §1

[32] = target: Gal(b1-4)Glc
Outline: as §1

[33] = target: Gal(b1-4)Glc6S
Outline: as §1

[34] = target: Gal(b1-4)GlcNAc
Outline: as §1

[35] = target: Gal(b1-4)GlcNAc(a1-6)Gal(b1-4)GlcNAc
Outline: as §1

[36] = target: Gal(b1-4)GlcNAc(b1-2)Man
Outline: as §1

[37] = target: Gal(b1-4)GlcNAc(b1-2)Man(a1-3)Man(b1-4)GlcNAc(b1-4)GlcNAc
Outline: as §1

B1: SP15308C-bot-338-23-338 (Bacteroides ovatus) (protein)
chain: DEWTDEQFKQLISFKTQPGGWGVTDVHVRYANSAKYTYNLPVLVSGSTDNTDDRLVSFSLRDDTLDILNFEKFGNRPELYFRELPQKYYSFPKELTIPAGQSHALLPIEFSLDGLDDSQKWALPLKVCEDANGTYAVNPRKYYRTAVLRPILFNEFSGRFSGSSLLGTMAGESDIKFSSTEIKLNVVTDSIVFFYAGQRTEDYEDRINYKVFLQFTGDKVDSKKDLYKMKIWAENEKLKFNSYSTPTYKVSSEMDATKTYLKHTYIVISDIDFDFVDYTSVPNYEIEYNMKGGLSVSRDLDTRKPDEDQGSDSKWW
- glycan array binding signal (z-score) [1]: 0.401
- glycan array binding signal (z-score) [2]: -0.023
- glycan array binding signal (z-score) [3]: 1.84
- glycan array binding signal (z-score) [4]: 0.441
- glycan array binding signal (z-score) [5]: -0.548
- glycan array binding signal (z-score) [6]: -0.696
- glycan array binding signal (z-score) [7]: 0.169
- glycan array binding signal (z-score) [8]: 0.936
- glycan array binding signal (z-score) [9]: -0.208
- glycan array binding signal (z-score) [10]: 3.59
- glycan array binding signal (z-score) [11]: -0.365
- glycan array binding signal (z-score) [12]: -0.366
- glycan array binding signal (z-score) [13]: -0.356
- glycan array binding signal (z-score) [14]: 0.7
- glycan array binding signal (z-score) [15]: -0.411
- glycan array binding signal (z-score) [16]: -0.403
- glycan array binding signal (z-score) [17]: 1.03
- glycan array binding signal (z-score) [18]: 0.945
- glycan array binding signal (z-score) [19]: -0.153
- glycan array binding signal (z-score) [20]: 0.097
- glycan array binding signal (z-score) [21]: 1.6
- glycan array binding signal (z-score) [22]: -0.568
- glycan array binding signal (z-score) [23]: -0.138
- glycan array binding signal (z-score) [24]: -0.034
- glycan array binding signal (z-score) [25]: -0.421
- glycan array binding signal (z-score) [26]: -0.154
- glycan array binding signal (z-score) [27]: -0.312
- glycan array binding signal (z-score) [28]: -0.601
- glycan array binding signal (z-score) [29]: -0.46
- glycan array binding signal (z-score) [30]: -0.038
- glycan array binding signal (z-score) [31]: -0.414
- glycan array binding signal (z-score) [32]: -0.335
- glycan array binding signal (z-score) [33]: 0.333
- glycan array binding signal (z-score) [34]: -0.508
- glycan array binding signal (z-score) [35]: -0.143
- glycan array binding signal (z-score) [36]: 0.773
- glycan array binding signal (z-score) [37]: -0.354
